In the supplement of paper PMC12764529:
± gives the half width of the 95% confidence interval. For many entries, trypsin and chymotrypsin gave values far apart.

Experiments:
[1] = folding stability dG unfold from trypsin proteolysis; higher = more stable
Summary of the method: (§1)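 K50 was inferred by Bayesian fitting of sequencing counts obtained after protease digestion of designed mini-proteins. Unfolding free energy was derived by comparison with a sequence-predicted unfolded-state K50 and a shared folded-state K50, for each protease or both combined. The mini-proteins were under 80 residues, had no cysteine, were carried in a PA-tagged cDNA display construct, and were kept only if AlphaFold2 dimer inter-PAE exceeded 15.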

[2] = folding stability dG unfold from chymotrypsin proteolysis; higher = more stable
Summary of the method: as §1

[3] = folding stability dG unfold (combined trypsin and chymotrypsin); higher = more stable
Summary of the method: as §1

Sequence	folding stability dG unfold [1] [kcal/mol]	folding stability dG unfold [2] [kcal/mol]	folding stability dG unfold [3] [kcal/mol]
SAGGSAGGSAGGSMIVLRMSADEIKKLLPPGAKIKKIEYDEETDEVYVIIEFDKDGKIISAGGSAGGSAGGS [r4_435_TrROS_Hall]	1.53 ± 0.028	1.32 ± 0.092	1.49 ± 0.069
SAGGSAGGSAGGSMPTYRITVEVDGKKYTITVREGMSPEEIAKRLKELYPNLTVKIEPVSAGGSAGGSAGGS [r4_155_TrROS_Hall]	3.75 ± 0.13	4.07 ± 0.15	4.04 ± 0.13
SAGGSAGGSAMKVITLPENADINKVIEAVEAGSPILVKIVDPKSSKTTDLPLPSKEAVEKLSAGGSAGGSAG [r3_362_JUSTAS]	-0.468 ± 0.17	-0.394 ± 0.18	-0.33 ± 0.15
SAGGSAMTLTLKVEVKVKVEVTNEDGSKFTVEKKVTVTVTVEVKKVYLTEEQLKDEEKLKKLLEKLSAGGSA [r15_728_TrROS_Hall]	1.73 ± 0.13	3.85 ± 0.12	3.2 ± 0.36
SAGGSAGGSAGGITPEYVERARKEAQDQYPPGKEREIIIRNPDNGKEITIRYTPDKIEIMSAGGSAGGSAGG [r7_45_TrROS]	0.0182 ± 0.12	-0.289 ± 0.16	-0.147 ± 0.24
SAGGSAGGSAGGDNDDAPPIEIEPVEHETYMNPDGWGIEINVYRIKGGATFIALSIMPMDSAGGSAGGSAGG [r7_948_TrROS]	2.35 ± 0.19	4.52 ± 0.31	3.6 ± 0.37
SAGGSAGGSIEELAKKTNIIEVKVTEFPNPKFKKAFIVYKNPKENKYKKGIYIFYDKKDGKLESAGGSAGGS [r12_133_TrMRF]	-0.185 ± 0.35	0.544 ± 0.43	0.313 ± 0.23
SADLAAELEEGGFVVTITETVVSVTPQTLEKDSFVVEKDVVTTITVTPPPVAPPPPDPANLRDAAGAPVSAG [r14_569_JUSTAS]	-0.0411 ± 0.041	1.01 ± 0.023	0.798 ± 0.084
SAGKDGDPPKRVRIKFKIPLPGGKLYEVTQTFYPNGSVHVSIRFPNGWMLSAWIPPDGDIEIKIMPIKKSAG [r5_168_TrROS]	3.37 ± 0.21	4.3 ± 0.14	4 ± 0.23
SAGGSAKEVKKITLEIEVNGKKLKIEVTYNKDNPKVTVKIYDKNGKLIKTKTMTLEELKKLLKELKSAGGSA [r15_940_TrROS_Hall]	2.13 ± 0.075	4.3 ± 0.057	3.84 ± 0.13
SAMDFPPGSTATIKVEVKNPDNTKTETYEIEVPVDPETGKAITLEDLKEALEKLGVNPENVKIVDIKVGSAG [r14_93_TrMRF]	3.18 ± 0.22	2.25 ± 0.2	2.72 ± 0.27
SAGGSAGGSAGGPEGAVYRLGPDVVLVRLDARAYPVTAPNADGSTYEFTVLEVRVEVFPPSAGGSAGGSAGG [r7_764_TrMRF]	0.621 ± 0.068	3.743 ± 0.033	3.02 ± 0.15
SEETLKIKVTVEKVKDKNGKYRYYVSIEVNGKKYKFEIKNLKEGEKKEFTFTIKLPKEKIKKIKISIKKPSA [r9_769_TrROS_Hall]	3.31 ± 0.16	5.34 ± 0.12	5.23 ± 0.25
SMPVQVTTDPSTGTVTITLPASTVDPETLREVLEALPADATTVTVNVDDPPVAEQVREIAAELGLPVTLTSA [r9_919_JUSTAS]	1.49 ± 0.051	-0.819 ± 0.16	0.783 ± 0.074
SAGGKTVIIKAKSIEEALKAAIEEGKTVTIIVYDEETGRFYKVEIKVDKKTKKIEIVKVEVIPLPEEESAGG [r13_309_TrROS_Hall]	1.65 ± 0.072	3.84 ± 0.079	3.35 ± 0.12
SAGGSAGGSGVTIPIWYKMDPGQPVPTAEEIQNIINELGFPIKDIKVQYHPDNGYVRAEITVKSAGGSAGGS [r12_1052_TrROS]	1.25 ± 0.048	0.828 ± 0.088	1.11 ± 0.17
SAGMRVVLTLPLPDLVALAERLGYAPEDMTLEEFAERLEELLPGARVEATFDPETGEVTLVLELPPELGSAG [r5_264_TrMRF]	0.892 ± 0.08	3.53 ± 0.074	2.99 ± 0.1
SHHHHHHHMTEKTETVPTYKVETKTFTLPDGTTEREVTITLPGGLVTKELYRYDTVTGTWTLLKTETVLLSA [r9_795_JUSTAS]	1.7 ± 0.047	4.262 ± 0.039	3.72 ± 0.083
SAGGSAGGSAKIWIILKDADEARDRIEELFGPGVRIEPVNIQRWDGKVYVMIEIEIPPNMTSAGGSAGGSAG [r3_87_TrROS]	2.1 ± 0.055	2.4 ± 0.051	2.28 ± 0.054
MKVVFTEEELPDAKVRKVFDPETGTITETVTYPSTSYTVTSTATITSFDPETGKVTITTTVSAPPEAGIPAS [r1_234_JUSTAS]	1.87 ± 0.05	1.31 ± 0.057	1.63 ± 0.13
SAGGSAGGSAGLPANPALQNQVVPVELKVEVEVEELPDGSVRLRLKVEFGDLTLEFYFAGPLSAGGSAGGSA [r18_335_TrMRF]	2.16 ± 0.11	4.23 ± 0.066	3.87 ± 0.089

Whole records as entered above.
SAGGSAGGSAGGITPEYVERARKEAQDQYPPGKEREIIIRNPDNGKEITIRYTPDKIEIMSAGGSAGGSAGG [r7_45_TrROS] is listed as folding stability dG unfold [1] [kcal/mol] = 0.0182 ± 0.12; folding stability dG unfold [2] [kcal/mol] = -0.289 ± 0.16; folding stability dG unfold [3] [kcal/mol] = -0.147 ± 0.24
SAGMRVVLTLPLPDLVALAERLGYAPEDMTLEEFAERLEELLPGARVEATFDPETGEVTLVLELPPELGSAG [r5_264_TrMRF] is listed as folding stability dG unfold [1] [kcal/mol] = 0.892 ± 0.08; folding stability dG unfold [2] [kcal/mol] = 3.53 ± 0.074; folding stability dG unfold [3] [kcal/mol] = 2.99 ± 0.1

Additional results:

Sequence	folding stability dG unfold [1] [kcal/mol]	folding stability dG unfold [2] [kcal/mol]	folding stability dG unfold [3] [kcal/mol]
SAGGSAGGSAKIKKIEIEKTKDGKKYKIRIEVDGKEYEIEVESLEEALKLAEELNLEVEIESAGGSAGGSAG [r3_67_TrROS_Hall]	1.99 ± 0.097	4.12 ± 0.076	3.64 ± 0.14
SKKTLTFKNPETGVTVTITFDEETGTITITVTLPNGETVTAEMEVKDGKITITLYNKNGEKVAEFEFELPSA [r9_665_TrROS_Hall]	2.91 ± 0.59	5.12 ± 0.33	5.12 ± 0.49
SMKKGEKKYKIKVKIYVYNKNGKPIKEIEIEIEVSEEELEKLKKLAEELAEKLNIKDLKIEIVEIEIEEESA [r9_376_TrROS_Hall]	1.12 ± 0.18	3.29 ± 0.046	2.94 ± 0.2
SAGGEVSVEVDPENGVVTVTATFYAPDGTLVGSLSFSFPVGEGILYIADVKYNPVEGKVEVVVKPLLGGSAG [r5_34_TrMRF]	2.99 ± 0.18	5.37 ± 0.16	5.17 ± 0.34
SAGGSAGGSAGEPEYVRVRIRVRRRVRNKETGKWEEKEVELTLVFPSKEEALKALEELGLSAGGSAGGSAGG [r11_984_TrROS_Hall]	3.99 ± 0.083	4.049 ± 0.037	4.02 ± 0.051
SAGGSAGGSAGSSPSDLKVTLKVTLPDGTVLTVVMPAHATLDDFPADRPVTVTTLETKLESAGGSAGGSAGG [r11_997_JUSTAS]	1.66 ± 0.084	0.656 ± 0.043	1.29 ± 0.12
SAGGSAMKIEEIEKVELKKNENGELTAKIIIKDKKTNKYIEIEITVKPGMTLEEIKKLAEELLKKLSAGGSA [r15_181_TrROS_Hall]	3.42 ± 0.13	1.96 ± 0.075	2.73 ± 0.14
SAGGSAGGSAMKIVKITTTQLPNGTTKVTVTFSDGSTKTVTIPPNQPGKSAEEVAKKVLLESAGGSAGGSAG [r3_368_JUSTAS]	1.8 ± 0.055	3.37 ± 0.054	2.96 ± 0.087
SAGSEIVEEILKELGVPESYEVVEVKEEVFEFPDSIKYKITVTIKDPSSTKTKTITVEIEIPVPDPKLESAG [r5_94_JUSTAS]	1.97 ± 0.12	4.54 ± 0.087	4.25 ± 0.15
SAGAREFELEAEFFLPDGYRVRVRVRLRVLPDGSVRAEPEVEIEPVPVPPPPRPVPVDPDDPDRPEAFSAGG [r19_12_TrMRF]	1.14 ± 0.16	3.26 ± 0.072	2.74 ± 0.4
KKKKPKKKTIKLKLKEGEEIEIKLENGEIFKIKKIKKKNGKLYIEIERKDGKIEKIEIKVKTKEDLLKAIKS [r1_66_TrROS_Hall]	0.441 ± 0.28	2.74 ± 0.26	1.74 ± 0.67
SAGGSAGGSAGGEVIEIELPGKTKEEIEEAIKKLPENYKIEIKKDENGRIRVRIFRKEDLSAGGSAGGSAGG [r7_662_TrROS_Hall]	1.6 ± 0.15	1.5 ± 0.17	1.44 ± 0.42
SAGGSAGGSAKKKKYLIKVKNEDGSEYTIEIDLSEDEIKELLEKKFGKKITKVEIYEKEDLKSAGGSAGGSA [r18_107_TrROS_Hall]	1.8 ± 0.06	3.98 ± 0.071	3.56 ± 0.12
SAGGSAKTITVILSPEEVEKLKELGVEIPENVPLAVAEIEILPDGGIKIKVYLFNIPPVKPGELKKSAGGSA [r15_322_TrMRF]	0.832 ± 0.03	3.11 ± 0.071	2.55 ± 0.12
SAGGSAGGSKKISLKDIKKVEVKKNKNGTYEVTIEVNGKKLTLTIKNGKIYLSDEAKKLLKKASAGGSAGGS [r20_92_TrROS_Hall]	0.487 ± 0.19	2.99 ± 0.15	2.25 ± 0.33
SAGGMTPSVLSNLSEEERKEAVRDFIIEFIKKAFPNVPEDFSVEEVPVLVYDLKTGKLFEVTVHLEGKSAGG [r13_555_TrMRF]	1.19 ± 0.083	2.16 ± 0.1	1.73 ± 0.15
SAGGEPMPPGDKLPITPEAKKLAKKLAPENGAKDVEIKVTQFVPGYVHIKIRNPMNGKKIEIWIPIDSAGGS [r16_281_TrROS]	2.47 ± 0.099	0.453 ± 0.33	1.46 ± 0.42
KYRTIMIPYKDMTPEQLRDFLQDLGLTWEDLEIEREGDYYTIKIPNVKITIMPPPPKPKVSPNDPEDAKEAS [r1_57_TrROS]	1.14 ± 0.065	3.36 ± 0.095	2.51 ± 0.23
SAGGSAGGSTTLTLELPEGRAVVYLTPRPDSWTAKIEFEDPELTLEVEITSLTPPGLDLVNIVKSAGGSAGG [r6_984_JUSTAS]	1.61 ± 0.055	3.67 ± 0.1	2.92 ± 0.18
SAGGSAGGSAGMTITKTEDGTYRLTLTVTETLPNGSTVTRTVTLTVPLEDAEEILAALPPSAGGSAGGSAGG [r11_505_TrROS_Hall]	2.52 ± 0.11	2.87 ± 0.032	2.72 ± 0.089
SAGGNMWMVRVKIDDGKTFMITSPEDIEEYLKKKLGPNYKIKEVEWHRMPPPNGPPMPMHEFEIEVPSAGGS [r16_408_TrROS]	1.28 ± 0.062	2.02 ± 0.1	1.76 ± 0.16
